Laboratory results from PMC8900822 (Acta Crystallographica. Section D, Structural Biology, 2022).

Target: T1, SmCA (Schistosoma mansoni, UniProt A0A4Y5UX87, S271R)
T1 sequence (A0A4Y5UX87 21-298 S271R): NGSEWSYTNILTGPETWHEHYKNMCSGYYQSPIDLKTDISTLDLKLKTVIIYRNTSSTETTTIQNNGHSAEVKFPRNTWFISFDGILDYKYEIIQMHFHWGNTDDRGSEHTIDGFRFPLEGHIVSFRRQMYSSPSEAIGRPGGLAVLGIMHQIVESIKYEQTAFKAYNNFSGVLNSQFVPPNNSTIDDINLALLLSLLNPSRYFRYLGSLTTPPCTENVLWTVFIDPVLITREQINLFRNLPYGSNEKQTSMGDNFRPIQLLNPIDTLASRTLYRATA
Assay: biochemical

`CC(=O)Nc1nnc(S(N)(=O)=O)s1` [AAZ, acetazolamide] gave a Ki of 42.5 nM.
